Test results as given in EPA's ToxValDB 9.5.
“And” between values parts separate entries of the source, which are not always exact repeats. Equal values may be shown once.

Test system: Rattus norvegicus
Details: oral, gavage; for NOAEL: Crj:CD

With `CC(C)(C)c1ccc(O)cc1` [4-(1,1-Dimethylethyl)phenol] the LD50 (acute, Sprague-Dawley) was > 2000 mg/kg and 5360 mg/kg, the NOAEL (reproduction developmental) was 200 mg/kg-day and the NOAEL (subchronic) was 200 mg/kg-day.
